Measurements reported in article PMC7819943, “Rice protein-binding microarrays: a tool to detect cis-acting elements near promoter regions in rice”.
Some of the results follow.

The chains behind the UniProt entries cited, without tags or fusion partners.
UniProt Q0JBA9, entry or part of it: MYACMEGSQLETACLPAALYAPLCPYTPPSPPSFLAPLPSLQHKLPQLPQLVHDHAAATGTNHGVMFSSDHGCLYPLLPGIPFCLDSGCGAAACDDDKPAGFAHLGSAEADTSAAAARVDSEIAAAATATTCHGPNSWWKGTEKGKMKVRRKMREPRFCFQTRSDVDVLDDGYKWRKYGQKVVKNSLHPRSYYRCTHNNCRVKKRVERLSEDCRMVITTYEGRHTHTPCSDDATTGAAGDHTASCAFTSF

target: OsWRKY34 (Oryza sativa, UniProt Q0JBA9 1-250); test: protein-binding microarray (RPBM); PBS, 2% BSA, 51.3 ng/ul salmon testes DNA, 50 uM zinc acetate, 200 nM TF, 25 C, 1 h; high values mean tight binding; conditions: protein: recombinant; tags: N-terminal polyhistidine and DsRed monomer fusion (pET32a); label: CyDye5-dUTP incorporated in the synthesized complementary strand; 3' TTTTT single-stranded linker to array surface; dsDNA, one strand shown
Procedure, shortened: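 Using Ni–NTA, transcription factors fused N-terminally to polyhistidine and DsRed were purified after expression in E. coli BL21-CodonPlus. These were incubated at 200 nM with a blocked, double-stranded custom Agilent array for 1 h at 25 °C in a buffer containing 50 µM zinc acetate, and the array was washed. The binding signal is per-feature fluorescence intensity (arbitrary units) on an Axon 4000B scanner.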

Sequence | binding signal
CATATTTTGTTTTAACTTTTTAGTCTTTTATTTTTTTTATCGGAGTCACCTAGTGCAG | 9800 fluorescence intensity (a.u.)
ATCTCCACCATCGCCGTCGCCGTCGCCTCGCCTCGTCACGCGGAGTCACCTAGTGCAG | 8990 fluorescence intensity (a.u.)
AGCTAGTAAGATCTGTCTGGTGTCAATTGTTGTCGTTTGCCGGAGTCACCTAGTGCAG | 8920 fluorescence intensity (a.u.)
TCAACCACGATCAACCTTCCACATCTGCAGAAACCGATTTCGGAGTCACCTAGTGCAG | 9450 fluorescence intensity (a.u.)
TGTAGTACTACTACTGTTTTTCCTCTGTAACCACATGCTTCGGAGTCACCTAGTGCAG | 8480 fluorescence intensity (a.u.)
ATGGTAGGTTTTAAGTTTTCACCGTATACATAGTTTTCACCGGAGTCACCTAGTGCAG | 9460 fluorescence intensity (a.u.)
TGATGCCGTTATTGTTCGAGTTCATGGCTTGTTAGATCTACGGAGTCACCTAGTGCAG | 9220 fluorescence intensity (a.u.)
CCTCCATTAGTCCGACGCATTCTGCATTTTGTACACATTACGGAGTCACCTAGTGCAG | 8260 fluorescence intensity (a.u.)
CGCATGCGTGCATGGATCTCCGCGCTCGTTGACTGACCTGCGGAGTCACCTAGTGCAG | 8990 fluorescence intensity (a.u.)
GTGGGGATTGGGTAGGAGAAGGAGTGGGGAATTAGGTTAGCGGAGTCACCTAGTGCAG | 12200 fluorescence intensity (a.u.)
GTTCTCGTCGTTCGTGTTCTTCTGCTTCGGTTTCGTGGTGCGGAGTCACCTAGTGCAG | 11900 fluorescence intensity (a.u.)
GTGACATTGCAATTTCTGGTCTCGGGTGGGTTGCGGTTGACGGAGTCACCTAGTGCAG | 15600 fluorescence intensity (a.u.)
CGGACAAGGACAAGCCTTGCTCGGTGGGTGGTTGGGGATACGGAGTCACCTAGTGCAG | 10900 fluorescence intensity (a.u.)
GCACCTCCGGCAACTCCGATTACGGCGGCATCGGGGCGGGCGGAGTCACCTAGTGCAG | 8810 fluorescence intensity (a.u.)
CCTCTCATCTCTCTGTTCTTCCAATCCTAGTTTCTGTTCTCGGAGTCACCTAGTGCAG | 8040 fluorescence intensity (a.u.)
CCCCTAGCGCCACCCGAGCCGTCGCCCTCTTCGTCGCCAACGGAGTCACCTAGTGCAG | 8720 fluorescence intensity (a.u.)
TTAAAACACTTTTCATGTTTTTGGTGCCTCTTGTGTTTTGCGGAGTCACCTAGTGCAG | 10100 fluorescence intensity (a.u.)
TTCCATGTTTCCGATAGCTCGCACCACCAAGACATCCTCGCGGAGTCACCTAGTGCAG | 9930 fluorescence intensity (a.u.)
TTGTTTGGTTGGGACACATGTGAATTTTGGTAGGATGGGGCGGAGTCACCTAGTGCAG | 12100 fluorescence intensity (a.u.)
CCTTCGCCGAGCTCCCTATATATCGCCGTCGTCTCGCACTCGGAGTCACCTAGTGCAG | 9330 fluorescence intensity (a.u.)
CTCGCTCTTCCGGCATTCTACCGTGAGAGGACATCACGCTCGGAGTCACCTAGTGCAG | 9420 fluorescence intensity (a.u.)

Sequence | binding signal
GTTATTCATTATTTATATTCCCAAGGTTTGACTTAAACATCGGAGTCACCTAGTGCAG | 10100 fluorescence intensity (a.u.)
TCTGCTCCTTACCTCCCCGGCCCCTGCTCCATTTCGCTGCCGGAGTCACCTAGTGCAG | 13000 fluorescence intensity (a.u.)
CAAAACTGTCTTTACACAGCCCCTAACACCTATGTTATGTCGGAGTCACCTAGTGCAG | 8360 fluorescence intensity (a.u.)
CTCTGAAATCCAGCTTCTCCAGCTTCTGGCTTTTTAGTTCCGGAGTCACCTAGTGCAG | 11000 fluorescence intensity (a.u.)
GTCCCACTTTTTTTTTTATTTTTGTGTGTGAAACTGATATCGGAGTCACCTAGTGCAG | 10700 fluorescence intensity (a.u.)
TCCTTGCGCCGCCGCCGCCTTGCCTTACCTCCCCGGCTTCCGGAGTCACCTAGTGCAG | 8570 fluorescence intensity (a.u.)
AGCTTATAAATAGTGCTGCCTAGCTTCTCTCTCTCTCAATCGGAGTCACCTAGTGCAG | 8090 fluorescence intensity (a.u.)
GCTTCTTCTCGGTTTGTTCGTTCCTTGTGGTTGAGAGTGACGGAGTCACCTAGTGCAG | 12300 fluorescence intensity (a.u.)
GTAGTTTGTGTGCGTGTTGTCGGCGTATGCATTTTAACTACGGAGTCACCTAGTGCAG | 8780 fluorescence intensity (a.u.)
TTCATGTCGCAGTCCGATTCACACGCCGACCACGACGAGCCGGAGTCACCTAGTGCAG | 9410 fluorescence intensity (a.u.)
CGGATAATTTTTCAATCTCTCGGTGATAGATGGCATACCCCGGAGTCACCTAGTGCAG | 8180 fluorescence intensity (a.u.)
ACACAGGCAGCAGTAGCACCTCGATCCATCTACCATTTTACGGAGTCACCTAGTGCAG | 10200 fluorescence intensity (a.u.)
ACATACCAATCCGTCTGCATTGCCACAACCAACACACATTCGGAGTCACCTAGTGCAG | 12400 fluorescence intensity (a.u.)
TTTGGGTGGGTGGCTGCTGCAACATCGATGTCACTATGCCCGGAGTCACCTAGTGCAG | 9900 fluorescence intensity (a.u.)
CGGTCGTCCCTGCTGGCAATTTACTTGTGTGTTTGTGTGTCGGAGTCACCTAGTGCAG | 10800 fluorescence intensity (a.u.)
TGCCTTCCTTAACTCCTGTGTTAATTCGACCACAACTTTACGGAGTCACCTAGTGCAG | 8030 fluorescence intensity (a.u.)
ACTACTTTTGACTTAGCTGTCCTTCATTTCTGTCAGTCCTCGGAGTCACCTAGTGCAG | 9620 fluorescence intensity (a.u.)
GTGCCGCATGCTGACCCTTGACTTTGACTGACAGTGACCGCGGAGTCACCTAGTGCAG | 9300 fluorescence intensity (a.u.)
TCCTGAACTGTTGCTCTCGGTTTCTGCTTACAAGGTTTTCCGGAGTCACCTAGTGCAG | 9750 fluorescence intensity (a.u.)
TCGTCGATGGCTTCCACCCGGACCAGCTCCCGGTCCACCTCGGAGTCACCTAGTGCAG | 8080 fluorescence intensity (a.u.)
TCCCACCCGCACGGAATCCAAGTCCCATCTAAATCACGCACGGAGTCACCTAGTGCAG | 8280 fluorescence intensity (a.u.)

Sequence | binding signal
CACTCTCATCGCCGATAGCACGGAGCTTCTGAATCTTTCTCGGAGTCACCTAGTGCAG | 8870 fluorescence intensity (a.u.)
CCCCGTCAACATCATCATCTTTATTAATTCTCTTTTGGCACGGAGTCACCTAGTGCAG | 8170 fluorescence intensity (a.u.)
GTGGGGTTGGGTTACGTGGTGGAGCTGAGCCCGGCGGCGCCGGAGTCACCTAGTGCAG | 11600 fluorescence intensity (a.u.)
TGCAGTTCGTTGTCACAAATCATATATTTTTCCATGGCACCGGAGTCACCTAGTGCAG | 8900 fluorescence intensity (a.u.)
GTTTTGTCCTTCTCATATTTTCACAAACTATACCCACAAGCGGAGTCACCTAGTGCAG | 11500 fluorescence intensity (a.u.)
ACCACTAACTGAAAACGACAACACAACTACTACTAACCTACGGAGTCACCTAGTGCAG | 8260 fluorescence intensity (a.u.)
GGAGGGGAGGATTAATTTCTTCTTTTTCTTAATTATTTTGCGGAGTCACCTAGTGCAG | 9990 fluorescence intensity (a.u.)
TGTCGTTGTGTTATCTATCTCCAATCAATTTTCATGGAAACGGAGTCACCTAGTGCAG | 8070 fluorescence intensity (a.u.)
TATTGCTGCTATTATCGACCTGGAATTCTTAACTATTCTTCGGAGTCACCTAGTGCAG | 9610 fluorescence intensity (a.u.)
CATCCCACTGCTTTGCTTTCTCCTGATGCATGATCTCTTTCGGAGTCACCTAGTGCAG | 9900 fluorescence intensity (a.u.)
TCCTATGTTTTTCCTGCGGTCCAATCAAACGGTCATTCTTCGGAGTCACCTAGTGCAG | 12300 fluorescence intensity (a.u.)
CACTTACAGCTGGACCCTATGATGCATGCATTGCATACCACGGAGTCACCTAGTGCAG | 8370 fluorescence intensity (a.u.)
TAGTTCTAGCTGCTGTTCTTGAATCCTTTTATCCACGCTCCGGAGTCACCTAGTGCAG | 8530 fluorescence intensity (a.u.)
AACTCTTTTCTTGTTGCTTCATCGCTTAAAATTTCGCAAACGGAGTCACCTAGTGCAG | 9220 fluorescence intensity (a.u.)
GCCCGGACCATCACACCCAATCGTGGCCGTCCACACCTCCCGGAGTCACCTAGTGCAG | 8460 fluorescence intensity (a.u.)
CGTGTGCCCTATCTCGTTCGTATCAGGCGTGCATCCAAAGCGGAGTCACCTAGTGCAG | 9570 fluorescence intensity (a.u.)
GTGTCTCTCTTCATGCACTCAGTATCCTTCTCATATCATTCGGAGTCACCTAGTGCAG | 10400 fluorescence intensity (a.u.)
GCTGCATTATCTCCTCTCTTCATAATCAGCTGCATGTCTTCGGAGTCACCTAGTGCAG | 8700 fluorescence intensity (a.u.)
AGTCTTGCCTTCCAGACTGCTCTGTCCTGGTGTTGCTGTACGGAGTCACCTAGTGCAG | 8980 fluorescence intensity (a.u.)
AGTTTTGGTTGAATCGATCTGAGCTGTTTGGTTGGGTTTCCGGAGTCACCTAGTGCAG | 12400 fluorescence intensity (a.u.)
AGGAGGCAAGGAACAAGAATCTCTTTCTCTACACCATTTACGGAGTCACCTAGTGCAG | 8280 fluorescence intensity (a.u.)

Sequence | binding signal
CCTCACGCAATTCCACAACTGCTGCTCCCACCCTCATCAGCGGAGTCACCTAGTGCAG | 9580 fluorescence intensity (a.u.)
ACAGGAAGGAATAAGGGCAGGGTTGGGTTGGGCCATGTAACGGAGTCACCTAGTGCAG | 14700 fluorescence intensity (a.u.)
ACATACATGCTTGTTTTGCGCTCCGAAGGCACCCACTCACCGGAGTCACCTAGTGCAG | 11500 fluorescence intensity (a.u.)
GTGATGCTGCTATTATACTTGCGAGATACTACTATTTTGTCGGAGTCACCTAGTGCAG | 9370 fluorescence intensity (a.u.)
ACTACCATTTGTACTGTGCTTCTTCAGATTTCAAACTCCCCGGAGTCACCTAGTGCAG | 8230 fluorescence intensity (a.u.)
TTCGTGCTCTTATGATTTACAGATCCACTCAAATCGCTTCCGGAGTCACCTAGTGCAG | 11500 fluorescence intensity (a.u.)
CTCCGCCACGACGTGTCCGCGTCCCGTCCACTCGCCCGATCGGAGTCACCTAGTGCAG | 11200 fluorescence intensity (a.u.)
CCAACACCTCAAGTCTTTGGGTCAACGGTCAACGTTATTACGGAGTCACCTAGTGCAG | 9860 fluorescence intensity (a.u.)
ACACTGTTGAGCACATTTGATTTTCATCGTTCATTTCCCTCGGAGTCACCTAGTGCAG | 8970 fluorescence intensity (a.u.)
CTTAGTACAAGAATCACATCTGCATATCTTCCCTGCAACCCGGAGTCACCTAGTGCAG | 9510 fluorescence intensity (a.u.)
AGGGTTCAAAGGTGGATGGTTGTGATCCAGATCTACTATGCGGAGTCACCTAGTGCAG | 8400 fluorescence intensity (a.u.)
GGAATCCAGATCTCACCCACCCCACCCCACCCACACGACGCGGAGTCACCTAGTGCAG | 8640 fluorescence intensity (a.u.)
TCCATGCACGTCATTTCCTTTTATATCTAGCTATAATTAACGGAGTCACCTAGTGCAG | 8500 fluorescence intensity (a.u.)
ATGTTGGTCTCATTTTCGTTTGCTGCTGGTTACTTGTATTCGGAGTCACCTAGTGCAG | 10800 fluorescence intensity (a.u.)
CTAACCACGCATCACCTAACTGCAAAAAACGTGTTTTACTCGGAGTCACCTAGTGCAG | 8410 fluorescence intensity (a.u.)
TTAAAGGTTTTTTTATTCCGATAAATTTTCGTTACCGTATCGGAGTCACCTAGTGCAG | 8870 fluorescence intensity (a.u.)
TCTATTCCATCTCCAGCGGCTCTCCACCACCAGGTCCACACGGAGTCACCTAGTGCAG | 8140 fluorescence intensity (a.u.)
TTGTTTCTGCCATCAAGCTTTTCTTTTTCTGACACATGCACGGAGTCACCTAGTGCAG | 9050 fluorescence intensity (a.u.)
CAGTGGGTTGTGGGTGTGGTTGGTCGGCCAGCGCTGGAGCCGGAGTCACCTAGTGCAG | 12600 fluorescence intensity (a.u.)
TTAAGTCGTTTGATTTTTCTTAGTTAAACTTTTTTATATTCGGAGTCACCTAGTGCAG | 8230 fluorescence intensity (a.u.)
ACTATTCATACTTCGAATTTATCTTCTTTTTATATATCTCCGGAGTCACCTAGTGCAG | 9390 fluorescence intensity (a.u.)
